The record followed here is patent publication CN114316047A.

Sequences of proteins named here, by UniProt entry; tags and fusion partners are left off. Residues count along the entry.
UniProt Q15116, residues 25-167: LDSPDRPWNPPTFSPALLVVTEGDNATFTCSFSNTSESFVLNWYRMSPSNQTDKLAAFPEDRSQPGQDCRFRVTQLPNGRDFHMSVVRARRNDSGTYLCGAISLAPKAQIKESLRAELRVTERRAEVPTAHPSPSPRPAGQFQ

This experiment has as its target 带组氨酸标签的PD-1抗原 (UniProt Q15116). Nature of the experiment: SPR, Biacore 3000, antibody captured on Protein A CM5 chip, His-tagged PD-1 as analyte. On the technique in general: SPR reads the build-up and loss of mass on a sensor chip optically.

Results are given in words; binding and its absence hold for the method and conditions named. Some results given as binding are weak or reduced against the parent protein; the word gives no strength.

B1: hu9H8-hIgG4 (antibody, V domains shown)
VH: EVQLLESGGGLVQPGGSLRLSCAASGFTFSDYYMYWVRQAPGKGLEWVSQISNGGGNTYYPDTVKGRFTISRDNSKNTLYLQMNSLRAEDTAVYYCSKSYYKYDGWYFDVWGQGTLVTVSS
VL: DIVMTQSPDSLAVSLGERATINCRASESVEYSRTSLIQWYQQKPGQPPKLLIYAASYVESGVPDRFSGSGSGTDFTLTISSLQAEDVAVYYCQQARKVPWTFGQGTKLEIK
With B1, the binding entry is listed as “binds”.
